Reference: PubChem BioAssay AID2685 (National Center for Advancing Translational Sciences (NCATS), 2010)
“And” between values parts separate entries of the source, which are not always exact repeats. Equal entries are not always repeated. The list shows a part of the results. Further columns of the screen follow, without active or inactive calls. Most of these compounds were active or inconclusive in the main read-out, so they are no random draw. Potencies come from curve fits of mixed quality, noted in brackets.

Experiment: qHTS Assay for Lipid Storage Modulators in Drosophila S3 Cells;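 on cell number change: cells counted by Cell Tracker Red CMTPX staining in the red channel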
Conditions: BODIPY lipid droplet fluorescence, 18-24 h; for cell number change: measured here: cell count max response, cells fed with added oleic acid
In short: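 Drosophila S3 cells got compounds at several concentrations plus oleic acid (400 uM solution). Laser-scanning cytometry with 488 nm excitation read lipid droplets at 500-530 nm and cells at 575-640 nm. Percent activity was relative to 20 uM Triacsin C.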

[1] = measured here: lipid fluorescence (Fed channel) AC50, cells fed with added oleic acid
[2] = measured here: cell number channel AC50, cells fed with added oleic acid

SMILES | cell number change | AC50 [1] | AC50 [2]
Clc1ccc(-c2cc3ccccc3[nH]2)cc1 | 2.64% | 32.6 µM [falling, single point] | 
O=C(COc1ccccc1)Nc1ccc(C(=O)N2CCCC2)cc1 | -0.54% | 0.58 µM [rising, single point] | 
CCN(CC(=O)Nc1cc(Cl)ccc1C)C(=O)C1COc2ccccc2O1 (stereo unspecified) | -23.1% | 6.51 µM [falling, single point] | 
CC(c1nnc(SCn2nnc3ccccc3c2=O)n1-c1ccc(Cl)cc1)N(C)C (stereo unspecified) | 9.07% | 5.17 µM [rising, full curve] | 
CCc1ccccc1N1C(=O)C2CC=CCC2C1=O (stereo unspecified) | 2.38% |  | 
O=C(O)C1Cc2ccccc2CN1S(=O)(=O)c1ccc(Cl)cc1 (stereo unspecified) |  | 29.1 µM [rising, single point] | 
CCCCN(C)Cc1cc(=O)oc2ccc3ccccc3c12 | 4.26% |  | 
Cc1cc(=O)nc2c3ccccc3n(CC(=O)NCCC3=CCCCC3)n12 | -26.6% | 8.2 µM [falling, partial curve] | 
CC(=O)Nc1cc(C(=O)OCc2cccc([N+](=O)[O-])c2)ccc1C | 19.8% | 0.00651 µM [rising, full curve, poor fit] | 
O=C(O)CN1C(=O)/C(=C/c2ccc(SCc3ccccc3)o2)SC1=S |  | 0.58 µM [rising, single point] | 0.82 µM [rising, single point]
CC(C)Oc1ccc(OCCSc2nc3ccccc3n2CC(=O)O)cc1 | 16.4% | 0.58 µM [falling, single point] | 
N#C/C(=C/c1cn(-c2ccccc2)nc1-c1cccc(OCc2ccccc2)c1)C(=O)NCCCn1ccnc1 | 11.7% |  | 6.51 µM [rising, single point]
CC1CC(C)CN(c2nc3c(c(=O)n(C)c(=O)n3C)n2CCSc2ncccn2)C1 (stereo unspecified) | 26.7% | 6.51 µM [rising, single point] | 
Cc1ccc(OCc2nc(-c3ccccn3)no2)c(Br)c1 | 0.195% | 0.651 µM [rising, partial curve] | 
CN1CCN(S(=O)(=O)c2cccc(C#N)c2)C(c2ccccc2)C1 (stereo unspecified) | -47.4% |  | 20.6 µM [falling, single point]
CCN1C(=O)C(O)(CC(=O)/C=C/C=C/c2ccccc2)c2ccccc21 (stereo unspecified) | 132% | 3.66 µM [rising, full curve] | 4.61 µM [rising, full curve]
Cc1ccc(NS(=O)(=O)c2ccc(C(=O)N3CC(C)CC(C)C3)cc2)cc1 (stereo unspecified) | 28.1% |  | 
Cc1ccc(NC(=O)c2ccco2)c(NC(=O)c2cccs2)c1 |  | 0.58 µM [falling, single point] | 
COc1ccccc1C(=O)NC(=O)COc1ccc(Cl)cc1Cl |  | 0.517 µM [rising, single point] | 
COc1ccc(S(=O)(=O)N2CCN(C3CCCCCCC3)CC2)cc1 | 5.11% and 101% | 29.1 µM [falling, partial curve] and 580 nM [falling, single point] | 0.651 µM [falling, single point]
Cc1cccc(NC(=O)C(C)Sc2nnc(-c3cccnc3)o2)c1 (stereo unspecified) | -3.13% | 0.92 µM [rising, full curve, poor fit] | 

SMILES | cell number change | AC50 [1] | AC50 [2]
O=C(Nc1cccc(C(F)(F)F)c1)c1cccnn1 | 5.55% | 23.1 µM [rising, single point] | 
Cn1c(=O)c2c(nc(N3CCCCCC3)n2CCSc2nc3ccccc3o2)n(C)c1=O | -14.7% | 0.82 µM [falling, full curve, poor fit] | 
Cc1onc(-c2ccccc2)c1C(=O)NC(=S)NNC(=O)c1cccnc1 | -41.9% |  | 25.9 µM [falling, partial curve]
C=CCn1c(NCCO)nc2c1c(=O)n(C)c(=O)n2C | 6.91% | 5.17 µM [falling, single point] | 
O=C(N/N=C/c1ccccc1)c1cc[n+]([O-])cc1 | 41.1% | 18.4 µM [rising, partial curve] | 
NS(=O)(=O)c1ccc(S(=O)(=O)N(Cc2ccccc2F)CC2CCCO2)cc1 (stereo unspecified) | 2.35% | 0.731 µM [falling, single point] | 
COCCCn1c(SCC(=O)O)nc2cc(OC)c(OC)cc2c1=N | -38.2% |  | 6.51 µM [falling, single point]
CC(=O)c1c(C)[nH]c(C(=O)NCc2ccccc2)c1C | -14.2% |  | 
COC(=O)c1cc(S(=O)(=O)N2CCCCCC2)c[nH]1 | 13.5% |  | 
CCc1ccc(N2C(=O)CC(NNc3nc4ccccc4s3)C2=O)cc1 (stereo unspecified) | -20.1% | 18.4 µM [falling, single point] | 
CNc1c(NC(=O)C2CCC(C)CC2)c(=O)oc2ccccc12 (stereo unspecified) | -16.8% | 6.51 µM [rising, single point] | 
CCC1=NC(c2ccccc2)N(O)C1(C)C (stereo unspecified) | -79.7% |  | 20.6 µM [falling, single point]
CCc1ccc(C(=O)COC(=O)[C@@H](NC(N)=O)[C@@H](C)CC)cc1 | -19% | 35.5 µM [falling, single point] | 
CCN1CCCC1CNS(=O)(=O)c1cc(Br)cc2c1N(C(=O)C1CC1)CC2 (stereo unspecified) | 11.5% | 25.9 µM [rising, single point] | 
c1ccc(NC(c2ccccc2)c2ccncc2)cc1 (stereo unspecified) | -7.77% | 29.1 µM [rising, single point] | 
COc1cccc(CNC(=O)C2CSC3(C)CCC(=O)N23)c1 (stereo unspecified) | -13.1% | 6.51 µM [falling, single point] | 
O=C(Cn1cccc1)N1CCc2ccccc21 | -42.5% | 23.1 µM [falling, partial curve] | 
Cc1cc(OC(C)C(=O)Nc2cccnc2)ccc1Cl (stereo unspecified) | 22.1% | 1.64 µM [falling, partial curve] | 
NC(=O)c1c(NC(=O)CN2CCCC2)sc2c1CCCC2 | -59.6% |  | 32.6 µM [falling, single point]
CC1CCCC(C)N1C(=O)COC(=O)c1cc(-c2cccs2)nn1-c1ccccc1 (stereo unspecified) | 35.2% |  | 16.4 µM [rising, partial curve, poor fit]

A stretch from the list above, as a working copy:
SMILES | cell number change | AC50 [1] | AC50 [2]
CNc1c(NC(=O)C2CCC(C)CC2)c(=O)oc2ccccc12 (stereo unspecified) | -16.8% | 6.51 µM [rising, single point] | 
CCC1=NC(c2ccccc2)N(O)C1(C)C (stereo unspecified) | -79.7% |  | 20.6 µM [falling, single point]
